{"source": "PubChem BioAssay AID1224830 (NIAID, 2016)", "assay": "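Genes whose knock-down alters the TNF-alpha reporter response to LPS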 (primary screen)", "cell system": "human THP-1 monocytic leukaemia cells, TNF dual-luciferase reporter clone, PMA-differentiated to macrophage-like cells", "reagent": "siRNA pool against human genes, 50 nM", "timing": "LPS for 4 h, given about 3 days after siRNA transfection", "conditions": "bacterial LPS (TLR4 ligand), 10 ng/ml", "detection": "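Ratio of firefly to renilla light, scaled to the plate median and expressed as a robust z-score per replicate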", "direction": "TNF reporter robust z-score: higher = stronger TNF reporter response to LPS", "rule for the call": "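Each well counts as active if its z-score is over 2.8 or under -1.5; controls are left without a call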", "note": "The whole screen tested about 18,000 reagents; this is an unselected part. Of all reagents, about 2,900 (16%) are marked active. 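Calls are made per well; low scores hint the gene aids the LPS response, high scores that it dampens it.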 Repeated entries: four replicate wells of each siRNA pool. Reagent sequences are not shown."}
{"target gene": "NPFFR1", "TNF reporter robust z-score": 0.37, "Call": "inactive"}
{"target gene": "NPFFR1", "TNF reporter robust z-score": 1.73, "Call": "inactive"}
{"target gene": "NPFFR1", "TNF reporter robust z-score": 0.19, "Call": "inactive"}
{"target gene": "NPFFR1", "TNF reporter robust z-score": 1, "Call": "inactive"}
{"target gene": "WDR44", "TNF reporter robust z-score": 0.23, "Call": "inactive"}
{"target gene": "WDR44", "TNF reporter robust z-score": 0.33, "Call": "inactive"}
{"target gene": "WDR44", "TNF reporter robust z-score": 1.4, "Call": "inactive"}
{"target gene": "CFAP52", "TNF reporter robust z-score": -0.51, "Call": "inactive"}
{"target gene": "CFAP52", "TNF reporter robust z-score": 0.32, "Call": "inactive"}
{"target gene": "CFAP52", "TNF reporter robust z-score": -0.87, "Call": "inactive"}
{"target gene": "CFAP52", "TNF reporter robust z-score": -0.56, "Call": "inactive"}
{"target gene": "ODAD4", "TNF reporter robust z-score": -1.34, "Call": "inactive"}
{"target gene": "ODAD4", "TNF reporter robust z-score": -0.25, "Call": "inactive"}
{"target gene": "ODAD4", "TNF reporter robust z-score": -0.6, "Call": "inactive"}
{"target gene": "ODAD4", "TNF reporter robust z-score": -1.56, "Call": "active"}
{"target gene": "LMBR1L", "TNF reporter robust z-score": 0.05, "Call": "inactive"}
{"target gene": "LMBR1L", "TNF reporter robust z-score": 0.82, "Call": "inactive"}
{"target gene": "LMBR1L", "TNF reporter robust z-score": -0.47, "Call": "inactive"}
{"target gene": "LMBR1L", "TNF reporter robust z-score": -0.04, "Call": "inactive"}
{"target gene": "ZNF620", "TNF reporter robust z-score": -0.59, "Call": "inactive"}
{"target gene": "ZNF620", "TNF reporter robust z-score": 0.03, "Call": "inactive"}
{"target gene": "ZNF620", "TNF reporter robust z-score": -0.8, "Call": "inactive"}
{"target gene": "ZNF620", "TNF reporter robust z-score": -0.23, "Call": "inactive"}
{"target gene": "GATA5", "TNF reporter robust z-score": -1.58, "Call": "active"}
{"target gene": "GATA5", "TNF reporter robust z-score": -1.2, "Call": "inactive"}
{"target gene": "GATA5", "TNF reporter robust z-score": -1.09, "Call": "inactive"}
{"target gene": "GATA5", "TNF reporter robust z-score": -1.23, "Call": "inactive"}
{"target gene": "JUP", "TNF reporter robust z-score": -1.52, "Call": "active"}
{"target gene": "JUP", "TNF reporter robust z-score": -1.21, "Call": "inactive"}
{"target gene": "JUP", "TNF reporter robust z-score": -1.76, "Call": "active"}
{"target gene": "JUP", "TNF reporter robust z-score": -1.74, "Call": "active"}
{"target gene": "PHETA1", "TNF reporter robust z-score": 0.11, "Call": "inactive"}
{"target gene": "PHETA1", "TNF reporter robust z-score": 1.14, "Call": "inactive"}
{"target gene": "PHETA1", "TNF reporter robust z-score": 0.1, "Call": "inactive"}
{"target gene": "PHETA1", "TNF reporter robust z-score": 0.94, "Call": "inactive"}
{"target gene": "AMN", "TNF reporter robust z-score": 0.37, "Call": "inactive"}
{"target gene": "AMN", "TNF reporter robust z-score": 0.27, "Call": "inactive"}
{"target gene": "AMN", "TNF reporter robust z-score": -1.13, "Call": "inactive"}
{"target gene": "AMN", "TNF reporter robust z-score": -0.78, "Call": "inactive"}
{"target gene": "DMAP1", "TNF reporter robust z-score": -0.23, "Call": "inactive"}
{"target gene": "DMAP1", "TNF reporter robust z-score": 0.66, "Call": "inactive"}
{"target gene": "DMAP1", "TNF reporter robust z-score": 0.27, "Call": "inactive"}
{"target gene": "DMAP1", "TNF reporter robust z-score": 1.36, "Call": "inactive"}
{"target gene": "CD9", "TNF reporter robust z-score": -0.15, "Call": "inactive"}
{"target gene": "CD9", "TNF reporter robust z-score": 0.67, "Call": "inactive"}
{"target gene": "CD9", "TNF reporter robust z-score": -1.06, "Call": "inactive"}
{"target gene": "CD9", "TNF reporter robust z-score": 0.04, "Call": "inactive"}

3 entries already listed, ordered by “TNF reporter robust z-score”, descending.
{"target gene": "ZNF620", "TNF reporter robust z-score": 0.03, "Call": "inactive"}
{"target gene": "LMBR1L", "TNF reporter robust z-score": -0.04, "Call": "inactive"}
{"target gene": "ZNF620", "TNF reporter robust z-score": -0.59, "Call": "inactive"}
